In US20240316147A1, “PHARMACEUTICAL COMPOSITION COMPRISING AN APL TYPE PEPTIDE” (CENTRO DE INGENIERIA GENÉTICA Y BIOTECNOLOGIA, priority 2017, published 2024):
Part of at least one peptide drawing is inferred or uncertain, most often the ends. Where no end group is shown, it is not given here.

How the values were obtained:
[1] = Molecular exclusion chromatography-HPLC of the peptide in water, PBS and sucrose; assay type: physicochemical
Description: FIG. 3. Molecular exclusion chromatography—HPLC of the peptide of Seq ID No. 1 dissolved in water (A), in phosphate buffered saline (PBS) (B) and in sucrose (C).
In PBS the peptide eluted in a shorter retention time, compared to the sample dissolved in water and in sucrose solution.

[2] = Effect of pH on concentration and purity of the peptide in 50 mM sodium acetate buffer (RP-HPLC); assay type: physicochemical; conditions: for chemical integrity of peptide (% purity in RP-HPLC): 50 mM sodium acetate
Experimental: FIG. 4. Effect of pH on concentration of peptide identified as Seq ID No. 1, in samples formulated and stored at 4° C. (A) and at 37° C. (B).
FIG. 5. Effect of pH on the purity of the peptide identified as Seq ID No. 1, in samples formulated and stored at 37° C.
Three pH values were analyzed: 3.0; 4.0 and 5.0. Samples were filtered and stored at 4° C. or at 37° C., for 15 days. Evaluation of stability and concentration of peptide was carried out by RP-HPLC. Results of concentration of peptide stored at 4° C. or at 37° C., respectively, are shown in FIGS. 4A and 4B, respectively. […] At 37° C., precipitation process is accelerated.
Chemical integrity of peptide (expressed as % purity in RP-HPLC) was greater than 95%, for the samples formulated in three pH values, when these were stored at 4° C., for 15 days.

SIDLKDKYKNIGAKLVQLVANNTNEEA [peptide identified as Seq ID No. 1]
physical state on molecular exclusion HPLC ([1]; dissolved in PBS): elutes as aggregated
physical state on molecular exclusion HPLC ([1]; dissolved in sucrose (20 mg/mL)): may correspond to the monomer of peptide
order of decrease in the concentration of the peptide over time ([2]; 2.5 mg/mL in 50 mM sodium acetate buffer, pH 3.0, 4.0, 5.0, stored 15 days): pH 5.0>pH 4.0>pH 3.0
dissolution of peptide ([2]; 2.5 mg/mL in 50 mM sodium acetate buffer, pH 5.0): does not dissolve completely
chemical integrity of peptide (% purity in RP-HPLC) ([2]; pH 3.0, 4.0 and 5.0, stored at 4° C. for 15 days): greater than 95%
chemical integrity of peptide (% purity in RP-HPLC) ([2]; incubated at 37° C., larger for pH 3.0): tendency to decrease in purity
